# Source: the supplement of paper PMC7858590
# ± gives the standard deviation of the averaged measurements. In all, about 3,800 compounds were measured (“cell shape (eccentricity) Z-score vs DMSO control”: median about 1.1, lowest 2% from about -4.7 on). Some of the results follow.
# System: human monocyte-derived macrophages (M0)
# Assay: cell shape (eccentricity) Z-score vs DMSO control; higher = more elongated, M2-like morphology
# Details: 20 µM; 24 h; macrophage state: M0 (M-CSF)
row,SMILES,cell shape (Z-score)
1,CCCCn1c(=O)c2[nH]c(C34CC5CC(CC3C5)C4)nc2n(CCCO)c1=O,-0.852
2,O=C1OC(OC(=O)c2cccnc2Nc2cccc(C(F)(F)F)c2)c2ccccc21 (stereo not drawn),2.97
3,COC(=O)[C@@]12CCC(C)(C)C[C@@H]1[C@@H]1C(=O)C=C3[C@]4(C)C=C(C#N)C(=O)C(C)(C)[C@H]4CC[C@]3(C)[C@@]1(C)CC2,-1.78
4,C#C[C@]1(O)CCC2C3CCC4=CC(=O)CC[C@@H]4C3CC[C@@]21C (stereo partly drawn),1.56
5,CCN(CC)CCCCC1CCN(CC(=O)N2c3ccccc3C(=O)Nc3cccnc32)CC1,2.23
6,CCCC1O[C@@H]2CC3C4CCC5=CC(=O)C=CC5(C)C4[C@@H](O)CC3(C)[C@]2(C(=O)CO)O1 (stereo partly drawn),2.13
7,C[C@@H]1O[C@@H](O[C@H]2[C@@H]3C=CO[C@@H](O[C@@H]4O[C@H](CO)[C@@H](O)[C@H](O)[C@H]4O)[C@@H]3[C@@]3(CO)O[C@@H]23)[C@H](OC(=O)/C=C/c2ccccc2)[C@H](OC(=O)/C=C/c2ccccc2)[C@H]1O,0.104 ± 3.2
8,Cc1cc(C)c(CNC(=O)c2cc(-c3ccc(N4CCNCC4)nc3)cc3c2cnn3C(C)C)c(=O)[nH]1,3.48
9,CC1(C)CC[C@@]2(C(=O)O[C@@H]3O[C@H](CO)[C@@H](O)[C@H](O)[C@H]3O)C(C1)C1=CCC3[C@@]4(C)CC[C@@H](O[C@@H]5O[C@H](CO)[C@@H](O)[C@H](O)[C@H]5O[C@@H]5O[C@H](CO)[C@@H](O)[C@H](O)[C@H]5O)C(C)(C)C4CC[C@@]3(C)[C@]1(C)C[C@H]2O (stereo partly drawn),0.124 ± 0.97
10,CCCCC/C=C\C/C=C\C/C=C\C/C=C\CCCC(=O)O,-0.0753
11,CCCNC(=O)N1N=C(c2ccc(N)cc2)c2cc3c(cc2C1C)OCO3 (stereo not drawn),2.69
12,COC(=O)C1=COC(O[C@@H]2O[C@H](CO)[C@@H](O)[C@H](O)[C@H]2O)[C@@H]2[C@@](C)(O)CC[C@]12O (stereo partly drawn),0.697
13,C=C1C(=O)O[C@H]2CC(C)C3CC[C@@]4(C)O[C@@]34CC12 (stereo partly drawn),0.597 ± 0.82
14,CC(=O)O[C@@H]1[C@@H](O)[C@H](C)O[C@@H](Oc2c(-c3ccc(O)cc3)oc3cc(O[C@@H]4O[C@@H](C)[C@H](O)[C@@H](O)[C@H]4O)cc(O)c3c2=O)[C@@H]1O,1.24
15,Cn1cc(C(F)(F)F)nc1-c1ccc(OCC(O)CNCCOc2ccc(O)c(C(N)=O)c2)cc1 (stereo not drawn),0.145
16,COc1cc(-c2oc3cc(O)cc(O)c3c(=O)c2O[C@@H]2O[C@H](CO[C@@H]3O[C@@H](C)[C@H](O)[C@@H](O)[C@H]3O)[C@H](O)[C@H](O)[C@H]2O)ccc1O,1.63
17,Cc1[nH]c(/C=C2\C(=O)Nc3ccc(S(=O)(=O)Cc4c(Cl)cccc4Cl)cc32)c(C)c1C(=O)N1CCC[C@@H]1CN1CCCC1,-0.195
18,N[C@H](Cc1cc(I)c(Oc2ccc(O)c(I)c2)c(I)c1)C(=O)O,2.64
19,COc1cc(O)c(C(=O)c2ccccc2)cc1O,-1.52
20,CCN(CC)CCNC(=O)c1ccc(NC(C)=O)cc1,-0.33
21,CC1(CN2CCC(n3c(=O)[nH]c4ccccc43)CC2)OCc2ccccc2-n2cccc21 (stereo not drawn),0.719
22,COc1ccc2ccc(=O)oc2c1CC(O)C(C)(C)OC (stereo not drawn),3.41
23,COc1cc(O[C@@H]2O[C@H](CO[C@H]3OC[C@](O)(COC(=O)c4ccc(O)c(OC)c4)[C@H]3O)[C@@H](O)[C@H](O)[C@H]2O)ccc1O,-2.77
24,CC1(C)S[C@@H]2[C@H](NC(=O)[C@H](N)c3ccccc3)C(=O)N2[C@H]1C(=O)O,-1.1

row,SMILES,cell shape (Z-score)
1,COc1ccccc1C1(O)CCN(CCCn2c3ccccc3c3ccccc32)CC1,-0.844
2,Cc1ncc([N+](=O)[O-])n1CC(C)O (stereo not drawn),2.31
3,COc1cc(-c2oc3cc(O)c(OC)c(O)c3c(=O)c2O[C@@H]2O[C@H](CO[C@@H]3O[C@H](CO)[C@@H](O)[C@H](O)[C@H]3O)[C@@H](O)[C@H](O)[C@H]2O[C@@H]2OCC(O)(CO)[C@H]2O)ccc1O (stereo partly drawn),1.02
4,O=C(O)C(O)Cc1c[nH]c2ccccc12 (stereo not drawn),-0.763 ± 1.3
5,CC(C)(C)c1ccc2cc(C#N)c(C#N)cc2c1,-0.135
6,c1ccc(C(NCCNC(c2ccccc2)c2ccccc2)c2ccccc2)cc1,2.99
7,NS(=O)(=O)c1cc2c(cc1Cl)N=C(CSCc1ccccc1)NS2(=O)=O,3.11
8,COc1ccc(/C=C/C(=O)O[C@@H]2[C@@H](OC(C)=O)[C@@H](OC(C)=O)[C@H](O[C@H]3[C@@H]4C=CO[C@@H](O[C@@H]5O[C@H](CO)[C@@H](O)[C@H](O)[C@H]5O)[C@@H]4[C@@]4(CO)O[C@@H]34)O[C@H]2C)cc1,2.5
9,C[C@@H](NC(=O)C[C@@H]1CC[C@@H](NC(=O)CN2CCOCC2)[C@H](CO)O1)c1ccccc1,0.746
10,CCOC(=O)C1=C(C)NC(C)=C(C(=O)OC)C1c1cccc([N+](=O)[O-])c1 (stereo not drawn),1.64
11,Cc1nc(=O)c2c([nH]1)CCSC2,1.44
12,COc1ccc(CCN(C)CCc2ccc(OC)c(OC)c2)cc1OC,3.04
13,C[C@@H]1O[C@@H](O[C@H]2[C@@H](Oc3cc(O)c4c(c3)O[C@H](c3ccc(O)cc3)CC4=O)O[C@H](CO)[C@@H](O)[C@@H]2O)[C@H](O)[C@H](O)[C@H]1O,2.15
14,CN1CC(=O)N2[C@H](c3ccc4c(c3)OCO4)c3[nH]c4ccccc4c3C[C@@H]2C1=O,-0.3
15,C=Cc1ccc(O[C@@H]2O[C@H](CO)[C@@H](O)[C@H](O)[C@H]2O[C@@H]2O[C@@H](C)[C@H](O)[C@@H](O)[C@H]2O)cc1,1.75
16,CC(C)c1ccc2c(c1)CCC1[C@](C)(C(=O)O)CCC[C@]21C (stereo partly drawn),2.33 ± 4.4
17,CC1CC(=O)C2=C(C1)C(Cl)C(O)C1(O)C2C(=O)c2cccc(O)c2C1O (stereo not drawn),1.54 ± 0.099
18,COc1cc(C(=O)NCc2ccc(OCCN(C)C)cc2)cc(OC)c1OC,2.65
19,CSc1cc2c(cc1C(F)(F)F)N(C(=O)Nc1cccnc1)CC2,3.3
20,CN(C)CC[C@H](c1ccc(Cl)cc1)c1ccccn1,-0.907
21,Nc1ccc(S(=O)(=O)Nc2cnc3ccccc3n2)cc1,-2.7
22,CCCCCC/C=C\CCCCCCCc1cccc(O)c1C(=O)O,0.731 ± 1.7
23,Cc1sc(N)c(C(=O)c2cccc(C(F)(F)F)c2)c1C,0.163
24,COc1cc(C2c3c(cc(OC)c(O)c3O)CC(CO)C2CO[C@@H]2O[C@H](C(=O)O)[C@@H](O)[C@H](O)[C@H]2O)cc(OC)c1O (stereo partly drawn),2

# By substructure, the entries above containing a cyano group (2)
row,SMILES,cell shape (Z-score)
3,COC(=O)[C@@]12CCC(C)(C)C[C@@H]1[C@@H]1C(=O)C=C3[C@]4(C)C=C(C#N)C(=O)C(C)(C)[C@H]4CC[C@]3(C)[C@@]1(C)CC2,-1.78
5,CC(C)(C)c1ccc2cc(C#N)c(C#N)cc2c1,-0.135
